The list shows a part of the results. These are further read-outs of the screen, such as a control signal, another cell line or another target. No call is given for them. Compounds called inactive in the main read-out are mostly missing here. The note in brackets gives the kind of curve behind each potency; many fits are weak.
Assay: qHTS Assay to Find Inhibitors of Chronic Active B-Cell Receptor Signaling
Details: ABC-DLBCL IkBa-CBG/CBR reporter, luminescence ratio (green luciferase fused to IkBa over red control in TMD8 lymphoma cells), 4 h
Procedure, shortened: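 TMD8 ABC-DLBCL cells carrying doxycycline-inducible green luciferase fused to IkappaBalpha plus unfused red luciferase were exposed to compounds (up to 46 uM) for 4 hrs at 37C. Activity came from the overlap-corrected green/red luminescence ratio.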

[1] = measured here: CBR red luminescence, cell number
[2] = measured here: IkBa-CBG green luminescence

SMILES	AC50 [1]	AC50 [2]
Cc1cccc(-n2c(O)c(C=Nc3ccccc3O)c3ccccc3c2=O)n1	17.8 µM [falling, single point]	
Nc1c(Cl)ncnc1N1CCN(c2ncnc(Cl)c2N)CC1	3.26 µM [falling, partial curve, poor fit]	
O=C1C=CC(=O)N1CCCCCCN1C(=O)C=CC1=O	2.06 µM [falling, full curve]	
COc1ccc(C(NC(C)=O)c2c(O)ccc3ccccc23)cc1OC (stereo not given)	2.59 µM [rising, partial curve, poor fit]	
COc1ccccc1/C=C/C=C(\C#N)C(=O)NC(C)c1ccccc1 (stereo not given)	7.94 µM [falling, partial curve]	
CCN(C(=O)COC(=O)c1ccc(OC)c(S(=O)(=O)N(C)Cc2ccccc2)c1)C1CCS(=O)(=O)C1 (stereo not given)	0.366 µM [falling, full curve]	
Cc1c(C(=O)c2no[n+]([O-])c2C(=O)c2cnn(C)c2C)cnn1C	12.6 µM [falling, partial curve]	5.01 µM [falling, single point]
CCn1nc([N+](=O)[O-])c(C(C#N)c2nc3cc(C(F)(F)F)ccc3s2)c(Cl)c1=O (stereo not given)	29.1 µM [falling, single point]	
Cc1ccc(-c2ccc(/C=N/N=C3/NC(=O)C(CC(=O)O)S3)o2)c([N+](=O)[O-])c1 (stereo not given)	29.1 µM [falling, single point]	
CCOC(=O)c1cnc2ccc(C)cc2c1NCCO		20.6 µM [rising, partial curve, poor fit]
COc1cc(OC)cc(-c2c(C#Cc3ccsc3)c3cc(-c4ccccc4OC)ccc3n2C)c1	6.51 µM [falling, single point]	
Cc1nc2cc(NC(=O)Nc3cccc(F)c3)ccc2n1C	35.5 µM [falling, single point]	
Cc1cc(OCC(=O)Nc2ccc(CN3CCOCC3)cc2)ccc1Cl	12.6 µM [falling, partial curve]	
CN(C)c1ccc(-c2cc3ccccc3c(=O)o2)cc1	0.259 µM [rising, full curve, poor fit]	
Cc1cc2oc(=O)cc(CN(C)Cc3ccccc3Cl)c2cc1C	10 µM [rising, partial curve, poor fit]	
CCN(CC)C(=O)C(C)N(C#N)c1nc(NC(C)C)nc(NC(C)C)n1 (stereo not given)	0.00461 µM [rising, full curve, poor fit]	
Cn1c(=O)c(=O)n(C)c2cc(S(=O)(=O)Nc3ccc4c(c3)OCCO4)ccc21	32.6 µM [falling, single point]	
COc1ccc(NC(=O)CSc2nc(C)cs2)c([N+](=O)[O-])c1	5.8 µM [rising, partial curve, poor fit]	
COc1cc(NC(=O)CN(c2cc(C)cc(C)c2)S(=O)(=O)c2c(C)noc2C)cc(OC)c1	7.31 µM [falling, partial curve]	18.4 µM [rising, partial curve, poor fit]
Cn1cc(CN2CCCC(C(=O)c3cc(F)ccc3F)C2)c2ccccc21 (stereo not given)	20 µM [falling, single point]	
O=C(COC(=O)Cc1ccccc1F)Nc1cccc(F)c1	22.4 µM [rising, partial curve, poor fit]	

Not a retest: an excerpt of the list.
SMILES	AC50 [1]	AC50 [2]
Nc1c(Cl)ncnc1N1CCN(c2ncnc(Cl)c2N)CC1	3.26 µM [falling, partial curve, poor fit]	
O=C1C=CC(=O)N1CCCCCCN1C(=O)C=CC1=O	2.06 µM [falling, full curve]	
COc1ccc(C(NC(C)=O)c2c(O)ccc3ccccc23)cc1OC (stereo not given)	2.59 µM [rising, partial curve, poor fit]	

The list continues:

SMILES	AC50 [1]	AC50 [2]
COc1cccc(NC(=O)Nc2ccc(C(C)(C)C)cc2)c1	20 µM [falling, single point]	
Cc1ccc(C(=O)COC(=O)CCC(=O)Nc2cccc(Cl)c2)cc1[N+](=O)[O-]	4.47 µM [rising, single point]	
COc1ccccc1NC(=O)c1nnn(CC(=O)Nc2cccc(SC)c2)c1N	13 µM [falling, partial curve, poor fit]	
CCCCC(=O)NC(c1ccccc1)c1ccc2cccnc2c1O (stereo not given)	3.55 µM [falling, partial curve, poor fit]	
COc1ccc2cnn(-c3ccc(OC(F)(F)Cl)cc3)c(=O)c2c1OC	0.794 µM [rising, full curve, poor fit]	
COc1ccc(-c2cc3ccccc3n2CC(O)CNC(CO)(CO)CO)cc1 (stereo not given)	9.2 µM [falling, single point]	
COc1cc2c(cc1OC)CN(C(=O)c1ccc(S(=O)(=O)N3CCCC3)cc1)CC2	6.31 µM [rising, single point]	
Cc1ccc(CN2C(=O)N/C(=C\c3ccc(N4CCOCC4)cc3)C2=O)cc1	29.1 µM [rising, single point]	
CCOC(=O)C1=C(O)c2ccccc2C(=O)/C1=C\c1ccc(C)cc1	29.1 µM [falling, single point]	
O=C1CCC(C(=O)N2CCOCC2)CN1Cc1ccc(Cl)cc1 (stereo not given)	2.82 µM [falling, single point]	
NNC(=O)CC(=O)NC1(Cc2ccc(O)cc2)CCCCC1	35.5 µM [falling, single point]	
COc1ccc(-c2[nH]n(-c3ccc([N+](=O)[O-])cc3)c(=O)c2C=NCc2ccc(F)cc2)cc1	0.206 µM [rising, partial curve, poor fit]	
CN(C(=O)c1ccc2c(c1)OCO2)C1CCCCC1	11.2 µM [falling, partial curve, poor fit]	
Cc1ccc(C(=O)NCC(=O)OC(C)C(=O)NCCC2=CCCCC2)cc1C (stereo not given)	11.6 µM [rising, partial curve, poor fit]	
Cc1ccc(Sc2c([N+](=O)[O-])c(=O)n(C)c3ccccc23)cc1	11.2 µM [falling, partial curve, poor fit]	
O=C(Nc1ccc2c(c1)OCCO2)c1oc2ccccc2c1NC(=O)C1CC1	0.708 µM [falling, full curve]	
C=CCN1C(=O)c2ccc(C(=O)N3CCN(S(=O)(=O)c4ccc(C(C)C)cc4)CC3)cc2C1=O	1.16 µM [falling, full curve]	
COc1ccc(NC(=O)C2Cc3ccccc3CN2C(=O)c2ccco2)cc1 (stereo not given)	2 µM [rising, partial curve, poor fit]	
COc1ccccc1CCNC(=O)NC1CCCCC1	10 µM [falling, partial curve]	
O=C(O)Cn1cnc2c(oc3ccccc32)c1=O	12.6 µM [rising, partial curve, poor fit]	
CCN(CC)S(=O)(=O)c1ccc(OC)c(NC(=O)OCc2ccccc2)c1	11.2 µM [rising, partial curve]	14.1 µM [falling, partial curve, poor fit]

SMILES	AC50 [1]	AC50 [2]
O=C(CSc1nc2ccc(Nc3nc(N4CCOCC4)nc(N4CCOCC4)n3)cc2s1)NCc1ccco1	7.08 µM [falling, partial curve, poor fit]	
COc1ccc(NC2CCCN(C(=O)CCc3cn[nH]c3)C2)cc1 (stereo not given)	20 µM [rising, single point]	
Cn1c(/N=C/c2c(O)ccc3ccccc23)nc2ccccc21	35.5 µM [falling, single point]	
O=[N+]([O-])c1cccc(-c2nnc(-c3ccc4c(c3)OCO4)o2)c1	1.46 µM [rising, partial curve, poor fit]	
CC(C)N(C(=O)[C@H]1C[C@H](CC(=O)NCCCN(C)C)C(=O)N2CCc3c([nH]c4ccc(Cl)cc34)[C@]12C)C(C)C	25.9 µM [falling, single point]	
Cn1nc(-c2ccccc2)cc1NC(=O)c1cccs1	10 µM [rising, partial curve, poor fit]	
O=C(Nc1cccc(F)c1)c1coc(=O)c(Br)c1	29.1 µM [rising, single point]	
CCn1cc([N+](=O)[O-])c(C(=O)N2N=C3/C(=C/c4cccs4)CCCC3C2c2cccs2)n1 (stereo not given)	20.6 µM [falling, single point]	
O=C(Nc1ccccc1F)c1ccc([N+](=O)[O-])s1	15.8 µM [falling, single point]	
CCN(CC(=O)NCc1ccc(Cl)cc1)C(=O)c1oc2ccccc2c1C	0.447 µM [falling, full curve, poor fit]	
Nc1ncn(C2O[C@H](CO)[C@@H](O)[C@H]2O)c(=O)n1 (stereo not given in full)	9.2 µM [rising, partial curve]	
O=C(c1ccccc1)N1CCN(c2ncnc3c(-c4ccccc4)nsc23)CC1	35.5 µM [rising, single point]	
CSc1ccccc1NC(=O)C1CC(c2c(F)cccc2Cl)=NO1 (stereo not given)	1.26 µM [falling, partial curve, poor fit]	
COCCOC(=O)C1=C(C)NC(=O)NC1c1cccc(F)c1 (stereo not given)	35.5 µM [rising, single point]	
COc1ccc(-c2csc3nc(-c4ccccc4OC)oc(=O)c23)cc1	3.16 µM [falling, full curve]	
O=C(Nc1ccc(CN2CCOCC2)cc1)c1cc2ccccn2n1	13 µM [falling, partial curve, poor fit]	
N/C(=N\OC(=O)c1cccc(Cl)c1)c1ccncc1	0.316 µM [rising, full curve, poor fit]	
Cc1c(C=O)c(=O)n(-c2ccccc2)n1-c1ccccc1	0.731 µM [rising, full curve, poor fit]	
Cc1ccc2c(CC(=O)NC3CCCc4ccccc43)coc2c1 (stereo not given)	8.2 µM [falling, partial curve]	
CC(C)Cn1c(N)c(C(=O)COC(=O)c2cccnc2Cl)c(=O)n(C)c1=O	12.6 µM [rising, partial curve, poor fit]	

— PubChem BioAssay AID493014 (National Center for Advancing Translational Sciences (NCATS), 2011)
